Results as given in article doi:10.1101/2023.03.07.531578.
No constants are given. Whether binding was seen depends on the method and setting. In cells and extracts the contact can be indirect. Some entries that bind do so weakly or less than the wild type. For some assays here: Sequences can lack the tags named with a protein.

T1: CRL-GFP (35S::CRL-sGFP(S65T)) (A. thaliana) (UniProt Q9FI46)
T1 sequence: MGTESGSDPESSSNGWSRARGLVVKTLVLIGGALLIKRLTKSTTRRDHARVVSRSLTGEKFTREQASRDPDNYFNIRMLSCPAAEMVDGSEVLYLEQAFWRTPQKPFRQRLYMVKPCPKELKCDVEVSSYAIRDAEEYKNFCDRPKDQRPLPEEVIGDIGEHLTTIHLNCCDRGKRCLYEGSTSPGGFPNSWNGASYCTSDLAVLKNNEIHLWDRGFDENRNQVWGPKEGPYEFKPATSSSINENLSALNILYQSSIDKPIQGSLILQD

T2: TOC75-V/OEP80 (A. thaliana (endogenous in chloroplasts of seedlings)) (UniProt Q9C5J8)
T2 sequence: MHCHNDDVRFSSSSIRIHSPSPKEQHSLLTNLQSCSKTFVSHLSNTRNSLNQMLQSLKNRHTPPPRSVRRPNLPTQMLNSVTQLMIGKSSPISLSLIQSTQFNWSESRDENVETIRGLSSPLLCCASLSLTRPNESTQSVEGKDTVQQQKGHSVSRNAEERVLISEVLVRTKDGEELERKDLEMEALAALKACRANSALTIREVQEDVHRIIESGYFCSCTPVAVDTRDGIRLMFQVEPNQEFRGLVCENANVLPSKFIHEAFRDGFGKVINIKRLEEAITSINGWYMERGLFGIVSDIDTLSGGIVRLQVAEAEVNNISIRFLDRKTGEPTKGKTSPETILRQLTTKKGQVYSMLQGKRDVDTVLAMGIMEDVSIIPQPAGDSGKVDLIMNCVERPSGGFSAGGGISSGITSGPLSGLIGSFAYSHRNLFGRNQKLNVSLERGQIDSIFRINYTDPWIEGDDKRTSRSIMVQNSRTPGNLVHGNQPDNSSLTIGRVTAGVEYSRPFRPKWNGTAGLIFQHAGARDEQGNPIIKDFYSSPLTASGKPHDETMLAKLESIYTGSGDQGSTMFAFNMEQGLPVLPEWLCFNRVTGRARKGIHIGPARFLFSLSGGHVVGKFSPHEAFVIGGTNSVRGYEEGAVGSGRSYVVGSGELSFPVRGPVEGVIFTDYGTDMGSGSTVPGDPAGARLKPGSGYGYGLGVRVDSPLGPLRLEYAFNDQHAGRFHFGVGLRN


Experiments:
[1] = biological target: T1, CRL-GFP (35S::CRL-sGFP(S65T)) (A. thaliana); assay: co-IP
[2] = biological target: T2, TOC75-V/OEP80 (A. thaliana (endogenous in chloroplasts of seedlings)); assay: co-IP

binding [1]	binding [2]	Binder
binds		TOC75-V/OEP80 (protein, UniProt Q9C5J8 1-732) MHCHNDDVRFSSSSIRIHSPSPKEQHSLLTNLQSCSKTFVSHLSNTRNSLNQMLQSLKNRHTPPPRSVRRPNLPTQMLNSVTQLMIGKSSPISLSLIQSTQFNWSESRDENVETIRGLSSPLLCCASLSLTRPNESTQSVEGKDTVQQQKGHSVSRNAEERVLISEVLVRTKDGEELERKDLEMEALAALKACRANSALTIREVQEDVHRIIESGYFCSCTPVAVDTRDGIRLMFQVEPNQEFRGLVCENANVLPSKFIHEAFRDGFGKVINIKRLEEAITSINGWYMERGLFGIVSDIDTLSGGIVRLQVAEAEVNNISIRFLDRKTGEPTKGKTSPETILRQLTTKKGQVYSMLQGKRDVDTVLAMGIMEDVSIIPQPAGDSGKVDLIMNCVERPSGGFSAGGGISSGITSGPLSGLIGSFAYSHRNLFGRNQKLNVSLERGQIDSIFRINYTDPWIEGDDKRTSRSIMVQNSRTPGNLVHGNQPDNSSLTIGRVTAGVEYSRPFRPKWNGTAGLIFQHAGARDEQGNPIIKDFYSSPLTASGKPHDETMLAKLESIYTGSGDQGSTMFAFNMEQGLPVLPEWLCFNRVTGRARKGIHIGPARFLFSLSGGHVVGKFSPHEAFVIGGTNSVRGYEEGAVGSGRSYVVGSGELSFPVRGPVEGVIFTDYGTDMGSGSTVPGDPAGARLKPGSGYGYGLGVRVDSPLGPLRLEYAFNDQHAGRFHFGVGLRN
	binds	CRUMPLED LEAF (CRL) (protein, UniProt Q9FI46 1-269) MGTESGSDPESSSNGWSRARGLVVKTLVLIGGALLIKRLTKSTTRRDHARVVSRSLTGEKFTREQASRDPDNYFNIRMLSCPAAEMVDGSEVLYLEQAFWRTPQKPFRQRLYMVKPCPKELKCDVEVSSYAIRDAEEYKNFCDRPKDQRPLPEEVIGDIGEHLTTIHLNCCDRGKRCLYEGSTSPGGFPNSWNGASYCTSDLAVLKNNEIHLWDRGFDENRNQVWGPKEGPYEFKPATSSSINENLSALNILYQSSIDKPIQGSLILQD
